Measurements as given in PubChem BioAssay AID590 (National Center for Advancing Translational Sciences (NCATS), 2007).
In all, about 59,000 compounds went through this assay and about 6,500 (11%) were called active. This list was built around the results that the source calls inconclusive (neither active nor inactive); the mix of calls is not that of the screen. Cut-off read from the data, not from the text of the source: active = max dye-equivalent concentration above about 10 nM; inconclusive = mostly about 1.1 nM to 9.6 nM; inactive = weaker than that. A structure can be active in one record and inactive in another.

Assay: qHTS Assay for Spectroscopic Profiling in A350 Spectral Region
Settings: Compound autofluorescence, 340/450 nm, Alexa 350 dye-equivalents; hits give high values

Row | SMILES | max dye-equivalent concentration
1 | CC(=O)Nc1ccc(NC(=O)CSC2=NCCS2)cc1 | inactive
2 | O=C(CN1CCN(Cc2ccccc2Cl)C1=O)NC1CCCCCCC1 | inconclusive: 1.1 nM
3 | CCn1c(O)c(C=NCCN2CCOCC2)sc1=S | inconclusive: 2.8 nM
4 | CC1N=C2c3ccccc3N=C(SCc3cc(=O)n4ccccc4n3)N2C1=O (stereo not given) | active: 20 nM
5 | Cc1ccc(Oc2nc3ccccc3n3c(C)nnc23)cc1 | inactive
6 | CN(C(=O)COc1ccccc1)c1nnc(-c2cccnc2)s1 | inconclusive: 7.8 nM
7 | O=C(Cc1coc2cc3c(cc12)CCC3)OCc1cc(=O)n2c(n1)sc1ccccc12 | inconclusive: 3.2 nM
8 | O=c1c(-c2ccc(Cl)cc2)nc2cnc(N3CCNCC3)nc2n1CCc1ccccc1 | active: 19 nM
9 | C#CCN1C(C)=C(C(=O)OC)[C@@H](c2cccc([N+](=O)[O-])c2)C(C(=O)OCC)=C1C | inconclusive: 6.4 nM
10 | c1cnc(N2CCN(c3ncnc4c3oc3ccccc34)CC2)nc1 | active: 45 nM
11 | O=C(O)Cc1ccc(NC(=O)c2cccs2)cc1 | inactive
12 | CCOC(=O)c1cnc(NCc2ccccc2)nc1C | inconclusive: 2.4 nM
13 | Cc1ccc(-n2nc(C)c3c2OC(N)=C(C#N)C3c2ccoc2)cc1 (stereo not given) | inactive
14 | COc1cccc(C2CC(C(F)(F)F)n3ncc(C(=O)O)c3N2)c1 (stereo not given) | inconclusive: 1.3 nM
15 | COC(=O)C1=C(NC(=O)c2cccc(OC)c2)CCS1 | active: 89 nM
16 | O=C(c1cc(C(F)(F)F)cc(C(F)(F)F)c1)N1CCC2(CC1)CCN(c1ccccn1)CC2 | inactive
17 | O=C1OCCC1Sc1nc2cc(Cl)ccc2s1 (stereo not given) | inactive
18 | Cc1cc(NC(=O)CSc2nc(-c3cccnc3)ccc2C#N)no1 | inconclusive: 1.3 nM
19 | O=C1CSC(c2ccccn2)N1c1cccc(Cl)c1 (stereo not given) | inconclusive: 3 nM
20 | COc1cccc(-c2ccc3ncnc(N4CCOCC4)c3c2)c1 | inconclusive: 2.8 nM
21 | Cc1nc2ccccc2c2c1C(=O)N(C(C)C)C2=O | inconclusive: 2.6 nM
22 | COc1cc(C(Nc2ccccn2)c2ccc3ccc(C)nc3c2O)cc(OC)c1O (stereo not given) | inactive
23 | Cc1ccc(C(=O)c2cn[nH]c2-c2cc(Cl)ccc2O)cc1 | inconclusive: 1.2 nM
24 | C/C(=N\O)C(=O)NCCN1CCCCC1 | active: 12 nM

Row | SMILES | max dye-equivalent concentration
25 | COc1ccc(CCNC(=O)CSc2nc(O)c(CC(C)C)c(=O)[nH]2)cc1OC | inactive
26 | COc1ccc(N2CCN(C(=O)c3ccc(C)c(Cl)c3)CC2)cc1 | inactive
27 | N#CC1=C(SCC(=O)c2cc3ccccc3oc2=O)NC(=O)C(C#N)C12CCCC2 (stereo not given) | inconclusive: 3.4 nM
28 | CCCc1nnc(NC(=O)C2CCCO2)s1 (stereo not given) | inactive
29 | CC(C)Sc1nc(N2CCOCC2)c2c(c1C#N)CC(C)(C)SC2 | inconclusive: 7.7 nM
30 | O=C(CSc1nnc(CNc2ccc(F)cc2)n1Cc1ccco1)N1CCCC1 | inconclusive: 9.7 nM
31 | O=C(O)CC[C@@H](C(=O)O)N1C(=O)[C@@H]2[C@@H]3CC[C@H](C3)[C@@H]2C1=O | inactive
32 | CN(C)CCNS(=O)(=O)N(C)C | inactive
33 | CC1(C)S[C@@H]2[C@H](NC(=O)C(C(=O)O)c3ccccc3)C(=O)N2[C@H]1C(=O)O (stereo not given in full) | inconclusive: 1.2 nM
34 | O=C(NCC1CCCO1)c1cc2ccccc2[nH]1 (stereo not given) | inactive
35 | O=S(=O)(c1ccccc1)c1nc(-c2cccs2)oc1NCC1CCCO1 (stereo not given) | inconclusive: 1.1 nM
36 | Cc1cc(OCC(=O)N2CCOCC2)cc2oc(=O)c3ccccc3c12 | active: 180 nM
37 | O=c1c(-c2ccccc2)nc2cnc(N3CCOCC3)nc2n1CCc1ccccc1 | inconclusive: 9.4 nM
38 | CCC(C)(C)n1nnnc1CN1CCSCC1 | inconclusive: 1.9 nM
39 | COc1ccccc1-c1ccc(C(=O)O)o1 | inconclusive: 1.9 nM
40 | CCNc1ncc2nc(-c3ccc(F)cc3)c(=O)n(CCOC)c2n1 | active: 430 nM
41 | CN(c1ccccc1)C(c1ccc(F)cc1)c1nnnn1C1CCCC1 (stereo not given) | inconclusive: 6.3 nM
42 | COc1ccc(Cn2cccc(NC(=O)Nc3ccc(C#N)cc3)c2=O)cc1 | inactive
43 | COC(=O)CSc1nc2ccccc2nc1SCC(=O)OC | inconclusive: 9.6 nM
44 | CCN(CC)CC[n+]1ccc2c(C)c3[nH]c4ccccc4c3c(C)c2c1 | inactive
45 | O=C(O)C1C2C=CC(O2)C1C(=O)Nc1ccc(S(=O)(=O)N2CCc3ccccc32)cc1 (stereo not given) | inconclusive: 1.6 nM
46 | COc1ccc(-c2ccc(-c3noc(-c4ccccc4)n3)c(OC)n2)cc1 | active: 120 nM
47 | CSc1nc(SC)c2c3c(oc2n1)COC(C)(C)C3 | inconclusive: 1.6 nM
48 | O=C(Nc1cc(C(F)(F)F)ccc1N1CCOCC1)c1cccnc1 | inactive

Individual results from the entries so far:
For max dye-equivalent concentration, CC(C)Sc1nc(N2CCOCC2)c2c(c1C#N)CC(C)(C)SC2 is entered as inconclusive: 7.7 nM
For max dye-equivalent concentration, O=c1c(-c2ccc(Cl)cc2)nc2cnc(N3CCNCC3)nc2n1CCc1ccccc1 is entered as active: 19 nM
For max dye-equivalent concentration, CCOC(=O)c1cnc(NCc2ccccc2)nc1C is entered as inconclusive: 2.4 nM

(list continues)

Row | SMILES | max dye-equivalent concentration
49 | Cc1cc(C)nc(SCC(=O)Nc2ccc(Br)cn2)n1 | inconclusive: 1.7 nM
50 | CN(C)CCn1c(C(=O)O)cc2ccccc21 | inconclusive: 9.9 nM
51 | COc1ccccc1N1CCN(CC(O)COc2ccc3c(C)cc(=O)oc3c2)CC1 (stereo not given) | inconclusive: 3.5 nM
52 | Cc1oc2cc3c(C(=O)N4CCCCC4)c(C)oc3cc2c1C(=O)N1CCCCC1 | inconclusive: 2.9 nM
53 | Cn1c(=O)c(-c2cccc(C#N)c2)nc2cnc(Oc3ccccc3)nc21 | inconclusive: 3.8 nM
54 | Fc1ccc(OCc2nn3c(Cn4nnc5ccccc54)nnc3s2)cc1 | inconclusive: 3.6 nM
55 | N#CC1=C(N)OC2=C(C(=O)CCC2)C1c1ccncc1 (stereo not given) | inactive
56 | CCC1CCCCN1C(=O)COC(=O)c1cc2ccccc2cc1O (stereo not given) | inconclusive: 1.2 nM
57 | c1nc(N2CCC3(CC2)OCCO3)c2c3c(sc2n1)CCCC3 | inconclusive: 1.4 nM
58 | CC(C)CN1CCC2(CC1)CCN(C(=O)c1csnn1)CC2 | inactive
59 | COC(=O)C1CCCN1C(=O)c1cccs1 (stereo not given) | inconclusive: 4.1 nM
60 | CCOC(=O)c1cccc(NC(=O)Cn2c(CC(=O)NC)nc3ccccc32)c1 | inconclusive: 8.3 nM
61 | NC1=NC(c2ccccc2Cl)n2c(nc3ccccc32)N1 (stereo not given) | inactive
62 | COCc1nc(-c2cc(Br)ccc2OC)no1 | inconclusive: 1.1 nM
63 | c1cncc(CNc2nc(-c3ccc4c(c3)OCO4)nc3ccccc23)c1 | inactive
64 | COC(=O)c1cc(NC(=O)C2COc3ccccc3O2)cc(C(=O)OC)c1 (stereo not given) | inconclusive: 8.5 nM
65 | CCc1nnc(NC(=O)CSc2nnc(CNc3ccc(Cl)cc3)o2)s1 | active: 21 nM
66 | Cc1ccc(C(=O)O)c(C(=O)Nc2nc(C)cs2)c1 | inactive
67 | COc1ccc(C2C=C(c3ccc(Cl)cc3)Nc3nc(NC(C)=O)nn32)cc1 (stereo not given) | active: 130 nM
68 | COc1ccc(-n2nnc3c(=O)n(CC(=O)N4CCCC4)cnc32)cc1 | inconclusive: 1.8 nM
69 | O=C(Nc1cc(N2CCOCC2)ncn1)Nc1cccc2ccccc12 | inconclusive: 3 nM
70 | CCCCn1c(SCC(=O)NCc2ccco2)nc2ccc(N3CCOCC3)cc2c1=O | active: 71 nM
71 | CCOCCCn1c(SCC(=O)NC(C)C)nc2ccccc2c1=O | inactive
72 | CS(=O)(=O)N1CCC2(CC1)CN(Cc1ccc(C#N)cc1)C2 | inactive

Row | SMILES | max dye-equivalent concentration
73 | Cc1ccc(C(=O)Nc2ccc3c(c2)nc2n3CCSC2)cc1 | inactive
74 | COc1cc(-c2nc(-c3ccc(-c4ccccc4)nc3OC)no2)cc(OC)c1OC | inconclusive: 6.3 nM
75 | CCOC(=O)c1[nH]c2ccc(F)cc2c1NC(=O)CCN1CCSCC1 | inconclusive: 1.5 nM
76 | COc1cccc(N2CCN(C(=O)NC3CCCCC3)CC2)c1 | inconclusive: 1.7 nM
77 | O=C(CN1CCc2ccccc2C1)c1cccs1 | inconclusive: 7.7 nM
78 | NS(=O)(=O)c1cc2c(cc1Cl)NC(CSCc1ccccc1)=NS2(=O)=O | inconclusive: 1.9 nM
79 | O=C(CC(C(=O)N1CCc2ccccc21)n1ccnc1)N1CCc2ccccc2C1 (stereo not given) | inactive
80 | CC(C)C(=O)Nc1ccc(NC(=O)c2cccc(F)c2)cn1 | active: 37 nM
81 | COc1cccc2cc(C(=O)N(C)C)c(=O)oc12 | inconclusive: 1.4 nM
82 | O=C(O)CCCNS(=O)(=O)c1ccc(Br)s1 | inconclusive: 2.8 nM
83 | COc1cc2[nH]c(=O)n(CCCC(=O)NCCc3ccccc3)c(=O)c2cc1OC | inactive
84 | Cc1c(Cl)cccc1NC(=O)C[C@H]1Sc2ccccc2NC1=O | inactive
85 | c1cncc(-c2nc(NCc3cccs3)c3ccccc3n2)c1 | inactive
86 | CCCn1c2ccccc2c2nc3ccccc3nc21 | inconclusive: 5.4 nM
87 | CCc1nc(N)c(C#N)c(-c2ccc(OC)c(OC)c2)c1C | active: 97 nM
88 | Cc1c2c(nc3c(C(=O)NC4CCCC4)cnn13)CCCC2 | inconclusive: 6.3 nM
89 | CC1(C)S[C@@H]2[C@H](NC(=O)[C@H](C(=O)O)c3ccsc3)C(=O)N2[C@H]1C(=O)O | inactive
90 | CC1(C)S[C@@H]2[C@H](C(=O)O)N=C(Cc3ccccc3)N2[C@H]1C(=O)O | inactive
91 | CSC1=C(C#N)C(CC(C)C)C2=C(CCCC2=O)N1 (stereo not given) | inactive
92 | CC(CCO)Nc1nc2c(c(=O)n(C)c(=O)n2C)n1Cc1cccc(Br)c1 (stereo not given) | inconclusive: 6.5 nM
93 | COc1cc(C)nc(Oc2ccc(=O)[nH]n2)n1 | inconclusive: 1.1 nM
94 | O=C1CN(C(=O)COC(=O)C2=COCCO2)c2ccccc2N1 | inconclusive: 1.9 nM
95 | Cc1cc(NS(=O)(=O)c2ccc(N)cc2)no1 | active: 160 nM
